# Reference: the supplement of paper PMC8728848
# The other results are listed elsewhere or left out.
# Columns and labels:
# Assay in all cases: glycan array binding signal (z-score within array); higher = stronger binding
# Settings in all cases: glycan notation: IUPAC condensed, linker removed
# [1] = biological target: Fuc(a1-2)[Gal(a1-4)]Gal(b1-4)GlcNAc
# Summary of the method: (§1)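 Negative Z-scores can be read as non-binding. The Z-score is calculated within each array and then averaged across arrays of one protein sequence at different concentrations or buffers and across linkers. Arrays, 3228 in all, were curated from the Consortium for Functional Glycomics database and kept only where the protein sequence was available.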
# [2] = biological target: Fuc(a1-2)[GalNAc(a1-3)]Gal
# Summary of the method: as §1
# [3] = biological target: Fuc(a1-2)[GalNAc(a1-3)]Gal(b1-3)GalNAc(a1-3)[Fuc(a1-2)]Gal(b1-4)GlcNAc
# Summary of the method: as §1
# [4] = biological target: Fuc(a1-2)[GalNAc(a1-3)]Gal(b1-3)GlcNAc
# Summary of the method: as §1
# [5] = biological target: Fuc(a1-2)[GalNAc(a1-3)]Gal(b1-3)GlcNAc(b1-2)Man(a1-3)[Fuc(a1-2)[GalNAc(a1-3)]Gal(b1-3)GlcNAc(b1-2)Man(a1-6)]Man(b1-4)GlcNAc(b1-4)GlcNAc
# Summary of the method: as §1
# [6] = biological target: Fuc(a1-2)[GalNAc(a1-3)]Gal(b1-4)Glc
# Summary of the method: as §1
# [7] = biological target: Fuc(a1-2)[GalNAc(a1-3)]Gal(b1-4)GlcNAc
# Summary of the method: as §1
# [8] = biological target: Fuc(a1-2)[GalNAc(a1-3)]Gal(b1-4)GlcNAc(b1-2)Man(a1-3)[Fuc(a1-2)[GalNAc(a1-3)]Gal(b1-4)GlcNAc(b1-2)Man(a1-6)]Man(b1-4)GlcNAc(b1-4)GlcNAc
# Summary of the method: as §1
# [9] = biological target: Fuc(a1-2)[GalNAc(a1-3)]Gal(b1-4)GlcNAc(b1-3)Gal(b1-4)GlcNAc
# Summary of the method: as §1
# [10] = biological target: Fuc(a1-2)[GalNAc(a1-3)]Gal(b1-4)GlcNAc(b1-3)Gal(b1-4)GlcNAc(b1-3)Gal(b1-4)GlcNAc
# Summary of the method: as §1
# [11] = biological target: Fuc(a1-2)[GalNAc(a1-3)]Gal(b1-4)[Fuc(a1-3)]GlcNAc
# Summary of the method: as §1
# [12] = biological target: Fuc(a1-2)[GalNAc(a1-4)]Gal(b1-4)GlcNAc
# Summary of the method: as §1
# [13] = biological target: Fuc(a1-2)[GalNAc(b1-3)]Gal
# Summary of the method: as §1
# Fuc(a1-3)GlcNAc = biological target: Fuc(a1-3)GlcNAc
# Summary of the method: as §1
# [14] = biological target: Fuc(a1-3)[Gal(b1-4)]Glc6S
# Summary of the method: as §1
# [15] = biological target: Fuc(a1-3)[Gal(b1-4)]GlcNAc
# Summary of the method: as §1
# [16] = biological target: Fuc(a1-3)[Gal(b1-4)]GlcNAc(b1-2)Man(a1-3)[Fuc(a1-3)[Gal(b1-4)]GlcNAc(b1-2)Man(a1-6)]Man(b1-4)GlcNAc(b1-4)GlcNAc
# Summary of the method: as §1
# [17] = biological target: Fuc(a1-3)[Gal(b1-4)]GlcNAc(b1-3)Gal(b1-3)[Fuc(a1-4)]GlcNAc
# Summary of the method: as §1
# [18] = biological target: Fuc(a1-3)[Gal(b1-4)]GlcNAc(b1-3)GalNAc
# Summary of the method: as §1
# [19] = biological target: Fuc(a1-3)[Gal(b1-4)]GlcNAc(b1-4)Gal(b1-4)[Fuc(a1-3)]GlcNAc
# Summary of the method: as §1
# [20] = biological target: Fuc(a1-3)[Gal(b1-4)]GlcNAc(b1-4)Gal(b1-4)[Fuc(a1-3)]GlcNAc(b1-4)Gal(b1-4)[Fuc(a1-3)]GlcNAc
# Summary of the method: as §1
# [21] = biological target: Fuc(a1-3)[Gal(b1-4)]GlcNAc(b1-6)[Gal(b1-3)GlcNAc(b1-3)]Gal(b1-4)Glc
# Summary of the method: as §1
# [22] = biological target: Fuc(a1-3)[Gal(b1-4)]GlcNAc6S
# Summary of the method: as §1
# [23] = biological target: Fuc(a1-3)[Gal3S(b1-4)]GlcNAc
# Summary of the method: as §1
# [24] = biological target: Fuc(a1-3)[Gal3S(b1-4)]GlcNAc6S
# Summary of the method: as §1
# [25] = biological target: Fuc(a1-3)[GalNAc(b1-4)]GlcNAc
# Summary of the method: as §1
# Fuc(a1-4)GlcNAc = biological target: Fuc(a1-4)GlcNAc
# Summary of the method: as §1
# Fuc(b1-3)GlcNAc = biological target: Fuc(b1-3)GlcNAc
# Summary of the method: as §1
# Gal(a1-2)Gal = biological target: Gal(a1-2)Gal
# Summary of the method: as §1
# Gal(a1-3)Gal = biological target: Gal(a1-3)Gal
# Summary of the method: as §1
# Gal(a1-3)Gal(b1-3)GlcNAc = biological target: Gal(a1-3)Gal(b1-3)GlcNAc
# Summary of the method: as §1
# [26] = biological target: Gal(a1-3)Gal(b1-3)GlcNAc(b1-2)Man(a1-3)[Gal(a1-3)Gal(b1-3)GlcNAc(b1-2)Man(a1-6)]Man(b1-4)GlcNAc(b1-4)GlcNAc
# Summary of the method: as §1
# [27] = biological target: Gal(a1-3)Gal(b1-3)[Fuc(a1-4)]GlcNAc(b1-2)Man(a1-3)[Gal(a1-3)Gal(b1-3)[Fuc(a1-4)]GlcNAc(b1-2)Man(a1-6)]Man(b1-4)GlcNAc(b1-4)GlcNAc
# Summary of the method: as §1
# Gal(a1-3)Gal(b1-4)Glc = biological target: Gal(a1-3)Gal(b1-4)Glc
# Summary of the method: as §1
# Gal(a1-3)Gal(b1-4)GlcNAc = biological target: Gal(a1-3)Gal(b1-4)GlcNAc
# Summary of the method: as §1
# [28] = biological target: Gal(a1-3)Gal(b1-4)GlcNAc(b1-3)GalNAc
# Summary of the method: as §1
# [29] = biological target: Gal(a1-3)Gal(b1-4)[Fuc(a1-3)]GlcNAc
# Summary of the method: as §1
# [30] = biological target: Gal(a1-3)Gal(b1-4)[Fuc(a1-3)]GlcNAc(b1-2)Man(a1-3)[Gal(a1-3)Gal(b1-4)[Fuc(a1-3)]GlcNAc(b1-2)Man(a1-6)]Man(b1-4)GlcNAc(b1-4)GlcNAc
# Summary of the method: as §1
binder,measurement,setting,value
"SAG1 (Toxoplasma gondii), P13664 (protein) MSVSLHHFIISSGFLTSMFPKAVRRAVTAGVFAAPTLMSFLRCGVMASDPPLVANQVVTCPDKKSTAAVILTPTENHFTLKCPKTALTEPPTLAYSPNRQICPAGTTSSCTSKAVTLSSLIPEAEDSWWTGDSASLDTAGIKLTVPIEKFPVTTQTFVVGCIKGDDAQSCMVTVTVQARASSVVNNVARCSYGADSTLGPVKLSAEGPTTMTLVCGKDGVKVPQDNNQYCSGTTLTGCNEKSFKDILPKLTENPWQGNASSDKGATLTIKKEAFPAESKSVIIGCTGGSPEKHHCTVKLEFAGAAGSAKSAAGTASHVSIFAMVIGLIGSIAACVA",glycan array binding signal (z-score),[1],-0.93
same,glycan array binding signal (z-score),[2],0.112
same,glycan array binding signal (z-score),[3],-0.186
same,glycan array binding signal (z-score),[4],-0.071
same,glycan array binding signal (z-score),[5],-0.505
same,glycan array binding signal (z-score),[6],0.144
same,glycan array binding signal (z-score),[7],0.433
same,glycan array binding signal (z-score),[8],0.796
same,glycan array binding signal (z-score),[9],0.883
same,glycan array binding signal (z-score),[10],-0.769
same,glycan array binding signal (z-score),[11],0.496
same,glycan array binding signal (z-score),[12],-0.526
same,glycan array binding signal (z-score),[13],-0.384
same,glycan array binding signal (z-score),Fuc(a1-3)GlcNAc,-0.38
same,glycan array binding signal (z-score),[14],-0.272
same,glycan array binding signal (z-score),[15],-0.026
same,glycan array binding signal (z-score),[16],1.86
same,glycan array binding signal (z-score),[17],-0.232
same,glycan array binding signal (z-score),[18],-0.213
same,glycan array binding signal (z-score),[19],1.12
same,glycan array binding signal (z-score),[20],-0.064
same,glycan array binding signal (z-score),[21],-0.869
same,glycan array binding signal (z-score),[22],-0.043
same,glycan array binding signal (z-score),[23],0.411
same,glycan array binding signal (z-score),[24],0.72
same,glycan array binding signal (z-score),[25],-0.106
same,glycan array binding signal (z-score),Fuc(a1-4)GlcNAc,-0.422
same,glycan array binding signal (z-score),Fuc(b1-3)GlcNAc,-0.214
same,glycan array binding signal (z-score),Gal(a1-2)Gal,0.341
same,glycan array binding signal (z-score),Gal(a1-3)Gal,0.672
same,glycan array binding signal (z-score),Gal(a1-3)Gal(b1-3)GlcNAc,-0.386
same,glycan array binding signal (z-score),[26],1.47
same,glycan array binding signal (z-score),[27],0.606
same,glycan array binding signal (z-score),Gal(a1-3)Gal(b1-4)Glc,-0.363
same,glycan array binding signal (z-score),Gal(a1-3)Gal(b1-4)GlcNAc,0.902
same,glycan array binding signal (z-score),[28],-0.788
same,glycan array binding signal (z-score),[29],0.109
same,glycan array binding signal (z-score),[30],0.398

# Another view of some results above.
binder	measurement	setting	value
SAG1 (Toxoplasma gondii), P13664 (protein) MSVSLHHFIISSGFLTSMFPKAVRRAVTAGVFAAPTLMSFLRCGVMASDPPLVANQVVTCPDKKSTAAVILTPTENHFTLKCPKTALTEPPTLAYSPNRQICPAGTTSSCTSKAVTLSSLIPEAEDSWWTGDSASLDTAGIKLTVPIEKFPVTTQTFVVGCIKGDDAQSCMVTVTVQARASSVVNNVARCSYGADSTLGPVKLSAEGPTTMTLVCGKDGVKVPQDNNQYCSGTTLTGCNEKSFKDILPKLTENPWQGNASSDKGATLTIKKEAFPAESKSVIIGCTGGSPEKHHCTVKLEFAGAAGSAKSAAGTASHVSIFAMVIGLIGSIAACVA	glycan array binding signal (z-score)	[20]	-0.064
same	glycan array binding signal (z-score)	[21]	-0.869
same	glycan array binding signal (z-score)	[22]	-0.043
same	glycan array binding signal (z-score)	[23]	0.411
same	glycan array binding signal (z-score)	[24]	0.72
same	glycan array binding signal (z-score)	[25]	-0.106
same	glycan array binding signal (z-score)	Fuc(a1-4)GlcNAc	-0.422
same	glycan array binding signal (z-score)	Fuc(b1-3)GlcNAc	-0.214
same	glycan array binding signal (z-score)	Gal(a1-2)Gal	0.341
same	glycan array binding signal (z-score)	Gal(a1-3)Gal	0.672
same	glycan array binding signal (z-score)	Gal(a1-3)Gal(b1-3)GlcNAc	-0.386
